Results taken from doi:10.1101/437228.
No constants are given. Whether binding was seen depends on the method and setting. In cells and extracts the contact can be indirect. Some results given as binding are weak or reduced against the parent protein; the word gives no strength.

Sequences of proteins named here, by UniProt entry; tags and fusion partners are left off.
UniProt Q60610: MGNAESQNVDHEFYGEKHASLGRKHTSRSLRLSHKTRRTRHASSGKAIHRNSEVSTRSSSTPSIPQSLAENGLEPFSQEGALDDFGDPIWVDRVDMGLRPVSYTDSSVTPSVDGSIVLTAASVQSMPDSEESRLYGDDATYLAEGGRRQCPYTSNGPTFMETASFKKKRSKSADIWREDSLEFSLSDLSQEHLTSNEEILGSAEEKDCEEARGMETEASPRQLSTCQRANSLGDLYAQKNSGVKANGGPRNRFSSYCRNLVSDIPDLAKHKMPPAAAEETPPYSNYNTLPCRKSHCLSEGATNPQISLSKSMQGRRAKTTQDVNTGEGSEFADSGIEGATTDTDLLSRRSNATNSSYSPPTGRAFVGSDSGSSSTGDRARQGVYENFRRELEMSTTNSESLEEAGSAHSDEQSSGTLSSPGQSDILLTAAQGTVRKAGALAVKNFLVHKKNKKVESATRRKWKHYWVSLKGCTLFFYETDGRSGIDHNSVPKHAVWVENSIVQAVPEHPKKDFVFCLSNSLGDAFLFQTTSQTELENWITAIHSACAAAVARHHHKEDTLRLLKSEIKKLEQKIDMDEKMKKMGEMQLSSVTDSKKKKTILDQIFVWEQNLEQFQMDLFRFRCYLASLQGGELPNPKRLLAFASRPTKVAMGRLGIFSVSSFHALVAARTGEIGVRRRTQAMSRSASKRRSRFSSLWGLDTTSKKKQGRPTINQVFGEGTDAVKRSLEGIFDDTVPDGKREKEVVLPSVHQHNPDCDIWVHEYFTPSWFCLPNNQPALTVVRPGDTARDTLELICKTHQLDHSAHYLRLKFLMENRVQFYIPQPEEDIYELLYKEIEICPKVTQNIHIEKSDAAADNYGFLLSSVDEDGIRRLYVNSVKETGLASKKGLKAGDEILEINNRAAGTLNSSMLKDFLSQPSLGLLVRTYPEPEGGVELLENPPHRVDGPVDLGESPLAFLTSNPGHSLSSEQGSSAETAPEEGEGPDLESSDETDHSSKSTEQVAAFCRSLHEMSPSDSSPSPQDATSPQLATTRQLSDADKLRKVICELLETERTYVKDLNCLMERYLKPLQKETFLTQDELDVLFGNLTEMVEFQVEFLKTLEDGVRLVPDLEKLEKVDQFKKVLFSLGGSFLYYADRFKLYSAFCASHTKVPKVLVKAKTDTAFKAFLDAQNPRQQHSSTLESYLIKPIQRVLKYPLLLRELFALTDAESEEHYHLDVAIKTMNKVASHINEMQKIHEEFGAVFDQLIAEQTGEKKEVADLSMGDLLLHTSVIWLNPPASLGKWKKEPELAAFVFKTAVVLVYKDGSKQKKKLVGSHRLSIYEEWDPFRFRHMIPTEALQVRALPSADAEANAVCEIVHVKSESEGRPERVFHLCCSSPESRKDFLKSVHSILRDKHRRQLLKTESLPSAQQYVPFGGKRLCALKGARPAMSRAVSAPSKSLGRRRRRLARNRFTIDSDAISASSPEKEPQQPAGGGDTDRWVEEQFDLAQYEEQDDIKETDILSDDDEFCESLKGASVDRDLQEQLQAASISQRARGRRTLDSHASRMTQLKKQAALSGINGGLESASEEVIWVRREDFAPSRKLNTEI
UniProt O08539: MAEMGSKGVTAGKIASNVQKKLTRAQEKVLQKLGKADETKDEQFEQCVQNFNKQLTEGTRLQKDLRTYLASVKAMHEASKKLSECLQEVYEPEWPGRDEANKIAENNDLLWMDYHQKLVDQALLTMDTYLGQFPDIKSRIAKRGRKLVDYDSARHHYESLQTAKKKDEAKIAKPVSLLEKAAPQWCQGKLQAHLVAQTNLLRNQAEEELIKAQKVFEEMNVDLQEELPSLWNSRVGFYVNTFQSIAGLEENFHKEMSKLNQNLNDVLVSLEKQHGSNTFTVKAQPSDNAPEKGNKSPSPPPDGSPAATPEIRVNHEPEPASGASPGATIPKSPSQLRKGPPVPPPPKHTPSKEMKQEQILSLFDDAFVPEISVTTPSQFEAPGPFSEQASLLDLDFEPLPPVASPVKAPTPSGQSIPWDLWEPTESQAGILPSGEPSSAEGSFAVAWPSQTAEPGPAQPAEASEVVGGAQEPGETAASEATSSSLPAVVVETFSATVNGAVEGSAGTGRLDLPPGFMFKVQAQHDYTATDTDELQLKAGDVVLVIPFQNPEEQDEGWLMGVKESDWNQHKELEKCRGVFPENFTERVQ
UniProt Q811D0: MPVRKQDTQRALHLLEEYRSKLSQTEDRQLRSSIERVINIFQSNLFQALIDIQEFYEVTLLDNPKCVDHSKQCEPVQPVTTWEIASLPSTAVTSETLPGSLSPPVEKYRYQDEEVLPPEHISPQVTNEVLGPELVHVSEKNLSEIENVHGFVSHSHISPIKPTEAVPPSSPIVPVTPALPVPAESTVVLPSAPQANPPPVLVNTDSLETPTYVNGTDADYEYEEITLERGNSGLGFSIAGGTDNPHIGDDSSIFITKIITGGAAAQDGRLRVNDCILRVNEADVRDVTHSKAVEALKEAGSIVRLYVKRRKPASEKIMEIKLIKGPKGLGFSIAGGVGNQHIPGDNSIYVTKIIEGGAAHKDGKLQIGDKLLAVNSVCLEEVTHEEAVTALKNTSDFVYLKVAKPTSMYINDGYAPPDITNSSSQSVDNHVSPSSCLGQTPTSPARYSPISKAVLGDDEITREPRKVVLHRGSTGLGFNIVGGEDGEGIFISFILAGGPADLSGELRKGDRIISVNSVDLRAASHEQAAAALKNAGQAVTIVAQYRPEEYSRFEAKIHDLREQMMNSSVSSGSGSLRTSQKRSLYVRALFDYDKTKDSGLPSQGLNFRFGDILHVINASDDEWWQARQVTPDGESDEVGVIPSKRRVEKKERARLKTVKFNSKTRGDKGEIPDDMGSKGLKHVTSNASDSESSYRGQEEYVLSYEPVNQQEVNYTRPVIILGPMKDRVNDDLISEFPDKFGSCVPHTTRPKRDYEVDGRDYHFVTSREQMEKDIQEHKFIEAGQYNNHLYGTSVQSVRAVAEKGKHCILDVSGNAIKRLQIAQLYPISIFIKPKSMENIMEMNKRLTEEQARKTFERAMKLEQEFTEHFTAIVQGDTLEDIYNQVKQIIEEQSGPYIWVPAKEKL

Key:
[1] = molecular target: TIAM1 (endogenous, mouse primary hippocampal neurons) (mouse (endogenous in primary hippocampal neurons)) (UniProt Q60610); experiment: proximity ligation
[2] = molecular target: BIN1 (endogenous, mouse primary hippocampal neurons) (mouse (endogenous in primary hippocampal neurons)) (UniProt O08539); experiment: proximity ligation

Substance	binding [1]	binding [2]
DLG1 (endogenous, mouse primary hippocampal neurons) (from UniProt Q811D0 1-905)	binds	
TIAM1 (endogenous, mouse primary hippocampal neurons) (from UniProt Q60610 1-1591)		binds
